These are yes or no findings as the source states them, for the method shown. Binding seen in cells or lysates may run through a third protein. Some results given as binding are weak or reduced against the parent protein; the word gives no strength.
Experiments:
[1] = biological target: GTPase-binding domain (PBD) of human PAK1 (amino acids 67-150) in fusion with GST (human) (UniProt Q13153); assay: pull-down; GTP-loaded PBD-GST beads; lysates of VICs without added nucleotide, cells treated beforehand (with or without 1 μg/ml PN, PN shRNAs, Src inhibitor PP2, Fak Y397F, α5 and β1 integrin blocking antibodies, FLNA constructs); bound Cdc42, Rac1 or RhoA immunoblotted and normalised to the total in the lysate; only the target purified
[2] = biological target: GTPase-binding domain (PBD) of human PAK1 (amino acids 67-150) in fusion with GST (human) (UniProt Q13153); assay: condition: only in the presence of an excess of GDP (100 μM); pull-down; PBD-GST on beads; VIC lysates (NP-40-soluble fraction) incubated with 100 μM GDP before precipitation; binding buffer 25 mM Tris-HCl pH 7.4, 1 mM DTT, 30 mM MgCl2, 40 mM NaCl, 0.5% Nonidet P-40, 1 h at 4°C; pellets and supernatants immunoblotted for Cdc42 and Rac1; only the target purified
[3] = biological target: GTPase-binding domain (PBD) of human PAK1 (amino acids 67-150) in fusion with GST (human) (UniProt Q13153); assay: pull-down; PBD-GST on beads; VIC lysates (NP-40-soluble fraction) incubated with 100 μM GTPγS before precipitation; binding buffer 25 mM Tris-HCl pH 7.4, 1 mM DTT, 30 mM MgCl2, 40 mM NaCl, 0.5% Nonidet P-40, 1 h at 4°C; pellets and supernatants immunoblotted for Cdc42 and Rac1; only the target purified

The chains behind the UniProt entries cited, without tags or fusion partners. Residues count along the entry.
UniProt Q13153, residues 67-150: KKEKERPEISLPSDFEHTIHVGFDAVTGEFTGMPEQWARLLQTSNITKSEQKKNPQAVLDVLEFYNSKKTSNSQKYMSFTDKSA
UniProt Q9QUI0: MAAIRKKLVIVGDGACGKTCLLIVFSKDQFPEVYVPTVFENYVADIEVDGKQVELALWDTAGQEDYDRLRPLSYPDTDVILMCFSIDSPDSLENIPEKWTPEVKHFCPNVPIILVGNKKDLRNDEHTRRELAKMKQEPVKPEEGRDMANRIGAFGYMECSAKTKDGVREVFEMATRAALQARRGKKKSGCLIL
UniProt P60766: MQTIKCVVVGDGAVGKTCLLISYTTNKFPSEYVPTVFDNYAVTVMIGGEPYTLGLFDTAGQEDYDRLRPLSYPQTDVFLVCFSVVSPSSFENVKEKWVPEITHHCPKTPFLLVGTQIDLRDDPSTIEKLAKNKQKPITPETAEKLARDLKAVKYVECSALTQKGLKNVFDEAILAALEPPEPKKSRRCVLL

Row | binding [1] | binding [2] | binding [3] | Substance
1 | binds |  |  | RhoA (from UniProt Q9QUI0 1-193)
2 | binds | no binding | binds | Cdc42 (from UniProt P60766 1-191)
